Laboratory results: PubChem BioAssay AID2685 (National Center for Advancing Translational Sciences (NCATS), 2010)
This is one part of the list. Shown are side measurements of this screen, not its main read-out; they come without a call. Compounds called inactive in the main read-out are mostly missing here. Potencies come from curve fits of mixed quality, noted in brackets.

Experiment: qHTS Assay for Lipid Storage Modulators in Drosophila S3 Cells;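 as to cell number change: cells counted by Cell Tracker Red CMTPX staining in the red channel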
Conditions: BODIPY lipid droplet fluorescence, 18-24 h; for cell number change: measured here: cell count max response, cells fed with added oleic acid
Outline: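 Laser-scanning cytometry quantifies lipid droplet accumulation (500–530 nm total intensity; droplet/cell object ratio) in oleic acid-fed (400 uM added) Drosophila S3 cells treated with a concentration series. 20 uM Triacsin C defined 100% inhibition.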

[1] = measured here: lipid fluorescence (Fed channel) AC50, cells fed with added oleic acid
[2] = measured here: cell number channel AC50, cells fed with added oleic acid

SMILES	cell number change [%]	AC50 [1]	AC50 [2]
Cc1ccc(OCC(=O)N(Cc2ccco2)c2c(N)n(Cc3ccccc3)c(=O)[nH]c2=O)cc1C	-7.77	0.0517 µM [falling, partial curve, poor fit]	
Cc1cc(C)c2nc(-c3ccccn3)cc(C(=O)NCc3cc(C)n(C)n3)c2c1	115		29.1 µM [rising, single point]
CCOC(=O)c1sc2nccc(N(C)C)c2c1N=CNOC			0.00461 µM [rising, full curve, poor fit]
Cc1nc(N2CCCCC2)c2sc(=S)n(C)c2n1		1.64 µM [rising, partial curve]	
N=c1c2c3c(sc2nc2n1CCCCC2)CCCCC3	-0.329	0.0731 µM [falling, full curve, poor fit]	
O=C(CNC(=O)c1ccc(Br)cc1)OCC(=O)c1ccccc1	24		
O=C(NCC1CCN(c2ccc(S(=O)(=O)N3CCOCC3)cc2)CC1)c1ccc(Cl)cc1		0.517 µM [rising, single point]	2.59 µM [rising, partial curve]
Cc1cccc(N(Cc2ccccc2)C(=O)c2ccccc2S(C)(=O)=O)c1	-8.21		
CCOC(=O)c1sc(NC(=O)CC)nc1C			0.58 µM [rising, single point]
CCOc1cc(/C=N/n2c(C)nc3ccccc3c2=O)ccc1O	1.21	0.411 µM [rising, full curve, poor fit]	
O=C(Nc1ccc(F)cc1)c1ccc(NC(=O)C2CCCO2)cc1 (stereo unspecified)	24.8		
Cc1ccc(NC(=O)N2C(=O)C3(OCCO3)c3ccccc32)cc1	39.3	6.51 µM [rising, single point]	32.6 µM [rising, single point]
COc1cc2c(cc1OC)C1O[C@](CCCCN3C(=O)c4ccccc4C3=O)(C2)OC2=C1C(=O)OC1(CCCCC1)C2	-12.6		
Cc1ccc(N(C)S(=O)(=O)c2cccc(C(=O)Nc3ccc(N4CCOCC4)cc3)c2)cc1	-10	0.731 µM [falling, single point]	
CC(=O)N1CCN(C(=S)Nc2cc(S(=O)(=O)N3CCOCC3)ccc2Cl)CC1	1.22		
CC(=O)CC(=O)Nc1nc(C)cc(C)n1	88.8		
COc1cc(OC)cc(C(=O)NNC(=O)C2CCCC2)c1	19.7	5.62 µM [falling, single point]	0.116 µM [rising, full curve, poor fit]
COc1ccc2c(c1)c(=O)c(Br)c(C)n2Cc1ccccc1	-22.7	6.51 µM [falling, full curve]	0.146 µM [falling, full curve, poor fit]
COc1cccc(-c2nnc(SCCC(=O)O)n2C)c1	0.397	8.2 µM [falling, partial curve, poor fit]	
C=CCNC(=O)CN1CCC(NC(=O)c2ccco2)CC1	17.7	0.206 µM [rising, full curve, poor fit]	

Reformatted: entries from further up.
Cc1cccc(N(Cc2ccccc2)C(=O)c2ccccc2S(C)(=O)=O)c1
  cell number change [%]: -8.21
CCOC(=O)c1sc(NC(=O)CC)nc1C
  AC50 [2]: 0.58 µM [rising, single point]

(list continues)

SMILES	cell number change [%]	AC50 [1]	AC50 [2]
Cc1cccc(CN2CCN(CC(=O)NCCCN3CCCC3=O)C2=O)c1	-11	29.1 µM [falling, single point]	
CCS(=O)(=O)c1c([N+](=O)[O-])ncn1C	-59.1	23.1 µM [falling, partial curve]	29.1 µM [falling, single point]
COC(=O)c1sccc1NC(=O)c1ccc(C(C)C)cc1	-19	2.59 µM [rising, single point]	
COCc1cc(C)nc(NCCc2ccccc2)c1C#N	54.8	16.4 µM [falling, partial curve]	1.46 µM [rising, partial curve, poor fit]
CC(C)CCNC(=O)C(NS(=O)(=O)c1ccc2c(c1)c(=O)n(C)c(=O)n2C)c1ccccc1 (stereo unspecified)	54.3	2.06 µM [rising, partial curve]	29.1 µM [rising, single point]
O=C(NC1CCCCC1)c1cc(C2CC2)on1	31.4	10.3 µM [rising, partial curve, poor fit]	2.91 µM [rising, partial curve]
COc1ccccc1N1CCN(C(=O)Cc2cccs2)CC1	25.2		
O=C(Cc1ccccc1)NC1CCN(Cc2ccccc2)CC1	-30.6	29.1 µM [falling, single point]	2.06 µM [rising, partial curve]
COc1ccc(COC(=O)C2=C(C)NC(=O)NC2c2ccccc2)cc1 (stereo unspecified)	-19.4		3.66 µM [falling, full curve, poor fit]
CC(C)Oc1ccc(S(=O)(=O)N2CCOCC2)cc1NC(=O)C1CCC1	41.3	4.11 µM [rising, partial curve, poor fit]	0.651 µM [rising, full curve]
CC(C)CN(C(=O)c1ccc([N+](=O)[O-])s1)c1c(N)n(Cc2ccccc2)c(=O)[nH]c1=O	-30.4		6.51 µM [falling, full curve, poor fit]
CCOC(=O)N1CCC(N(CCOC)C(=O)Nc2ccc(CC)cc2)CC1	-11.8	18.4 µM [rising, single point]	
CC1(C(=O)O)CCC(C(=O)NC2CCCCCC2)C1(C)C (stereo unspecified)	2.54	0.058 µM [falling, full curve]	
NC(=O)CN1C(=O)NC2(CCCc3sccc32)C1=O (stereo unspecified)	40.8		10.3 µM [rising, partial curve]
CC(C)[C@@H](C(=O)O)N(Cc1cccc(CN([C@H](C(=O)O)C(C)C)S(C)(=O)=O)c1)S(C)(=O)=O	14.2	29.1 µM [rising, single point]	
N#CC(C(=O)NCCc1ccccc1)c1nc2ccccc2nc1N1CCOCC1 (stereo unspecified)		1.84 µM [rising, partial curve]	2.59 µM [rising, partial curve]
CCn1c(=O)cc(C(=O)OC)sc1=Nc1ccc(F)c(F)c1	17	1.64 µM [rising, single point]	
Nc1c(C(=O)Nc2ccc(Cl)c(Cl)c2)sc2nc(-c3cccnc3)ccc12	7.99	0.103 µM [rising, full curve, poor fit]	
O=C(NCCN1CCOCC1)c1ccc(F)cc1	-47.9	16.4 µM [falling, partial curve]	0.0651 µM [falling, full curve, poor fit]
O=C(O)CCC(=O)NCc1cn(-c2ccccc2)nc1-c1cccc(Br)c1		8.2 µM [rising, partial curve, poor fit]	2.91 µM [rising, single point]

Only AC50 [2], for some of the entries so far:

| SMILES | AC50 [2] |
| --- | --- |
| COCc1cc(C)nc(NCCc2ccccc2)c1C#N | 1.46 µM [rising, partial curve, poor fit] |
| CC(C)CCNC(=O)C(NS(=O)(=O)c1ccc2c(c1)c(=O)n(C)c(=O)n2C)c1ccccc1 (stereo unspecified) | 29.1 µM [rising, single point] |
| O=C(NC1CCCCC1)c1cc(C2CC2)on1 | 2.91 µM [rising, partial curve] |

Next part.

SMILES	cell number change [%]	AC50 [1]	AC50 [2]
CCN(CC)CCCN(C(=O)c1ccccc1F)c1nc(-c2ccc(OC)cc2)cs1	-9.98		
Cc1cccc(CC(=O)NCCn2c(C)cc3ccccc32)c1	56.7		20.6 µM [rising, single point]
CCc1ccc(OCC(=O)O/N=C(\N)c2ccncc2)c(Br)c1	13.6	3.66 µM [rising, single point]	
CCCCCCc1nc2ccccc2c(=O)n1NC(=O)c1c(O)c2cccc3c2n(c1=O)CCC3	19.4	18.4 µM [rising, partial curve]	
CCOc1ccc(CCNC(=O)COC(=O)c2ccc3c(c2)OCCO3)cc1OCC	-48.5	5.17 µM [falling, partial curve]	4.11 µM [falling, partial curve]
O=C(NCc1ccccn1)c1cccc(S(=O)(=O)Nc2ccc(SC(F)F)cc2)c1	25		
COC(=O)c1cc2oc(C)cc2n1CC(=O)N(C)c1ccccc1	-15.8	5.8 µM [falling, full curve, poor fit]	
CN(c1ccccc1)S(=O)(=O)c1ccc2[nH]c(=O)oc2c1	-18.4		
CC(OC(=O)c1cc(=O)c2ccccc2o1)C(=O)Nc1ccc(N(C)C)cc1 (stereo unspecified)	1.88	2.91 µM [rising, single point]	
Cc1ccc(Cl)cc1NC(=O)NCCN1CCCCC1	34.1		13 µM [rising, partial curve, poor fit]
O=C(Nc1nnc(-c2ccccc2Cl)o1)c1ccco1		6.51 µM [falling, single point]	6.51 µM [falling, single point]
O=C1NC2C(NC(=O)N2C2CCCCC2)N1C1CCCCC1 (stereo unspecified)	-39.9	0.411 µM [falling, full curve]	0.517 µM [falling, full curve]
O=C(NCc1ccccc1Cl)c1ccc(CS(=O)(=O)c2ccccc2)o1	20.2	6.51 µM [rising, single point]	
O=C(NCCN1CCOCC1)Nc1ccc(F)cc1	35.4		2.59 µM [rising, full curve]
COc1ccc(F)cc1CN1CCN(c2ncnc3scc(-c4ccccc4)c23)CC1	30.5	2.91 µM [rising, full curve]	0.731 µM [rising, full curve, poor fit]
CN(C(=O)CSc1cc(C(=O)c2nccn2C)c2ccccc2n1)c1ccccc1	-18.7	32.6 µM [falling, single point]	
CSCCC(NC(=O)c1ccccc1)C(=O)N1CCN(Cc2ccc(Cl)cc2)CC1 (stereo unspecified)	-4.13	5.8 µM [falling, single point]	
COc1ccc(C2CC(c3ccc(Br)cc3)=NN2C(=S)Nc2ccccc2)cc1 (stereo unspecified)	35		4.11 µM [rising, full curve, poor fit]
